Data on eleven substances can be found in PMC6220877 (Chembiochem, 2018).

Holding throughout (conditions): whole synthesis, analytical reversed-phase HPLC (system A) and LC-MS
Series [1] is described as follows: general procedure: Fmoc solid-phase peptide synthesis; 2-Chlorotrityl chloride resin.
The nature of series [2]: general procedure: Fmoc solid-phase peptide synthesis; Fmoc-Leu-Wang resin.
Series [3] is described as follows: general procedure: Fmoc solid-phase peptide synthesis; 2-chlorotrityl chloride resin; Fmoc-Leu-Wang resin; HMBA resin.
A short description of series [4]: general procedure: Fmoc solid-phase peptide synthesis; HMBA resin.

The same purity stands for every peptide and may come from a single statement. [ ]: non-standard residue; d: D form. 2Thi = N[C@@H](Cc1cccs1)C(=O)O; Cha = N[C@@H](CC1CCCCC1)C(=O)O; Tle = CC(C)(C)[C@H](N)C(=O)O A value given as a limit tells only on which side of the number the result lay.

Take Ac-Asp-Pro-Glu-Thr-Gly-Glu-Leu-TET: in series [1], the “final HPLC purity” value is above 95% and the “final LC-MS purity” value is on record as above 95%.
Ac-Asp-Pro-Glu-Bap-Gly-Glu-Leu-OH: in series [2], the “final HPLC purity” value is recorded as above 95% and the “final LC-MS purity” value was above 95%.
For Ac-Asp-Pip-Glu-Thr-Gly-Glu-Leu-OH, in series [3], the “final HPLC purity” value is given as above 95% and the “final LC-MS purity” value is listed as above 95%.
On to Ac-DPENGEL-OH, for which, in series [1], the “final HPLC purity” value is listed as above 95% and the “final LC-MS purity” value was above 95%.
Consider Ac-Asp-Pro-Glu-hPhe-Gly-Glu-Leu-OH, for which, in series [2], the “final HPLC purity” value is given as above 95% and the “final LC-MS purity” value is given as above 95%.
Consider “Ac-DPETGE[2Thi]-OH (SMILES CC(=O)N[C@@H](CC(=O)O)C(=O)N1CCC[C@H]1C(=O)N[C@@H](CCC(=O)O)C(=O)N[C@H](C(=O)NCC(=O)N[C@@H](CCC(=O)O)C(=O)N[C@@H](Cc1cccs1)C(=O)O)[C@@H](C)O)”, for which, in series [1], the “final HPLC purity” value was above 95% and the “final LC-MS purity” value is above 95%.
Turning to Ac-Asp-Pro-Glu-Thr-Gly-Glu-Leu-NH-Bn, in series [4], the “final HPLC purity” value is given as above 95% and the “final LC-MS purity” value is above 95%.
As to Ac-Asp-Thp-Glu-Thr-Gly-Glu-Leu-OH, in series [1], the “final HPLC purity” value was above 95% and the “final LC-MS purity” value is reported as above 95%.
Regarding “Ac-DPETGE[Tle]-OH (SMILES CC(=O)N[C@@H](CC(=O)O)C(=O)N1CCC[C@H]1C(=O)N[C@@H](CCC(=O)O)C(=O)N[C@H](C(=O)NCC(=O)N[C@@H](CCC(=O)O)C(=O)N[C@H](C(=O)O)C(C)(C)C)[C@@H](C)O)”, in series [1], the “final HPLC purity” value is reported as above 95% and the “final LC-MS purity” value is above 95%.
As to “Ac-DPETGE[Cha]-OH (SMILES CC(=O)N[C@@H](CC(=O)O)C(=O)N1CCC[C@H]1C(=O)N[C@@H](CCC(=O)O)C(=O)N[C@H](C(=O)NCC(=O)N[C@@H](CCC(=O)O)C(=O)N[C@@H](CC1CCCCC1)C(=O)O)[C@@H](C)O)”, in series [1], the “final HPLC purity” value was above 95% and the “final LC-MS purity” value is above 95%.
“Ac‐Asp‐Pro‐Glu‐Thr‐Gly‐Glu‐Leu‐NH‐isopentyl”: in series [4], the “final HPLC purity” value is above 95% and the “final LC-MS purity” value is above 95%.
